According to PMC3046439:
No constants are given. Whether binding was seen depends on the method and setting. In cells and extracts the contact can be indirect. Some entries that bind do so weakly or less than the wild type.

The chains behind the UniProt entries cited, without tags or fusion partners.
UniProt P49327: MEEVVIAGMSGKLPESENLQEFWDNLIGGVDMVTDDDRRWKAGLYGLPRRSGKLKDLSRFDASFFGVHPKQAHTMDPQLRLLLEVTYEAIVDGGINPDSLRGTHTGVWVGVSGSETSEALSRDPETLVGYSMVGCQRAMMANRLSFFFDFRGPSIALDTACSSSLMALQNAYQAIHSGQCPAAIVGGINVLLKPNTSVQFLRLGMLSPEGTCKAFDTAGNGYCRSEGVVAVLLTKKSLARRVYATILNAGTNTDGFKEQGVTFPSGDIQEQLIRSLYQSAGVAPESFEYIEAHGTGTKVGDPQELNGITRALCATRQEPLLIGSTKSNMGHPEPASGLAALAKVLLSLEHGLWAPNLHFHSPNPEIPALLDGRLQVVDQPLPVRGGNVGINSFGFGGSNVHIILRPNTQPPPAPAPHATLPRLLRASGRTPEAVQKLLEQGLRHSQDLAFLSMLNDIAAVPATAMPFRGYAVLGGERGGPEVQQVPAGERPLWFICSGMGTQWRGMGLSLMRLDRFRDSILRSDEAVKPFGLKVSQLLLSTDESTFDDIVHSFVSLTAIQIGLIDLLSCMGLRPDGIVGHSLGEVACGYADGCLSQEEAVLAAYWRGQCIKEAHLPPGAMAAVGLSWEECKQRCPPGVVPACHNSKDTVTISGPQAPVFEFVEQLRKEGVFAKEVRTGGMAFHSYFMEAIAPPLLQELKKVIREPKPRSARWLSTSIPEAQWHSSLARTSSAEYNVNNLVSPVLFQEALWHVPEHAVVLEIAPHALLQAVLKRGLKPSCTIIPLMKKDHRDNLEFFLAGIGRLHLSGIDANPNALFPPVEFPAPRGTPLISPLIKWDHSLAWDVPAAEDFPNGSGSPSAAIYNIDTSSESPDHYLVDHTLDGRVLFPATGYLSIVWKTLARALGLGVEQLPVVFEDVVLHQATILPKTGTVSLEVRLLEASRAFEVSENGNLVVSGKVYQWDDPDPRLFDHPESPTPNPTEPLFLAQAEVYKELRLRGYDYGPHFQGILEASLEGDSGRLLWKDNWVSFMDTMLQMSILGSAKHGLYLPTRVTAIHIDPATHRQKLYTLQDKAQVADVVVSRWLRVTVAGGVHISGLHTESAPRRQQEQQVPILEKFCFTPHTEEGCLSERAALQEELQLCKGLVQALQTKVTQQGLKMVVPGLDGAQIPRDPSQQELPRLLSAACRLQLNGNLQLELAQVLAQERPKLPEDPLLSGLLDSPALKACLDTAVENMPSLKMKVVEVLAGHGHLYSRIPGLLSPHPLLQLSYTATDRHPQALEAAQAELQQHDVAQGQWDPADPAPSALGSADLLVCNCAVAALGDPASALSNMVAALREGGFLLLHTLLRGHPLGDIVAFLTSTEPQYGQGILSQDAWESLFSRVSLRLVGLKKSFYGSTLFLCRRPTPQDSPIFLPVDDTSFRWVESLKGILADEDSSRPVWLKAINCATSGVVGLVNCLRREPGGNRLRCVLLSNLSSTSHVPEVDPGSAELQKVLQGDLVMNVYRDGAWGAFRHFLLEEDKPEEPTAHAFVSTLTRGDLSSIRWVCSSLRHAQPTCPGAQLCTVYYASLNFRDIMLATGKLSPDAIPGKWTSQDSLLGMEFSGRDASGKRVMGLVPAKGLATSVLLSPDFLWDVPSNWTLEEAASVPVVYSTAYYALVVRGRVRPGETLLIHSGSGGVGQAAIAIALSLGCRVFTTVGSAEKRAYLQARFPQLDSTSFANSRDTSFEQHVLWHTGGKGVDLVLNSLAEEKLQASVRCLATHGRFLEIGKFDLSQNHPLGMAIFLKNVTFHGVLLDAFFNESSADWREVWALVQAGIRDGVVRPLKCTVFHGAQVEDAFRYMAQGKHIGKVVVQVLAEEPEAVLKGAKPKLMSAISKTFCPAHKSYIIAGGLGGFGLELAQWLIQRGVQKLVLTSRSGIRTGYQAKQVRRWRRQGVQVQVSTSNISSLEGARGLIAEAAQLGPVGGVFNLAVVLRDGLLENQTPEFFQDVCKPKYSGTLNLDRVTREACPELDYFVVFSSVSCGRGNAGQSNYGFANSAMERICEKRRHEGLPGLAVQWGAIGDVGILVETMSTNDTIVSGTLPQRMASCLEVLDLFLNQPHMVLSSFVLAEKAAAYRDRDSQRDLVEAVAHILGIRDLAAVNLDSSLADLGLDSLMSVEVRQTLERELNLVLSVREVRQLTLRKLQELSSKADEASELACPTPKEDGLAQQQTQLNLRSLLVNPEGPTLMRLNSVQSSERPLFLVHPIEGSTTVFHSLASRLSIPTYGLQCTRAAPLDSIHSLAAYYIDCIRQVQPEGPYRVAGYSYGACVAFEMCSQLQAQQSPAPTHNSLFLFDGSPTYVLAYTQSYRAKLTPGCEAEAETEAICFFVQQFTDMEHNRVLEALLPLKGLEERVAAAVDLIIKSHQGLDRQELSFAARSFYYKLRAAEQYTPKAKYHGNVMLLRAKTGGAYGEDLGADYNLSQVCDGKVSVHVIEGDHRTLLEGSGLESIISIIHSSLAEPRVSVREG

Molecular target: fatty acid synthase (FASN) (human (endogenous in SKBR3 and BT474)) (UniProt P49327)
Assay: co-IP; FASN immunoprecipitated with 2 ug anti-FASN antibody and protein G agarose from lysates (1% Triton-X 100, 50 mM Tris-Cl pH 8.0, 150 mM NaCl, 5 mM EDTA) of serum-starved SKBR3 and BT474 cells; Western blot for FASN, HER2 and PT66; cells treated with no agent, 50 ng/mL HRG, 1 uM lapatinib, HRG plus lapatinib, 10 uM C75, or HRG plus C75

binding: binds
Substance: human epidermal growth factor receptor 2 (HER2) (from UniProt P04626 23-1255)
